{"sequences": {"note": "Chains of the proteins cited; added tags and fusions are not shown. Lines headed by an entry give the natural chain unless they say otherwise; changes in a name come on top.", "UniProt Q68DV7": "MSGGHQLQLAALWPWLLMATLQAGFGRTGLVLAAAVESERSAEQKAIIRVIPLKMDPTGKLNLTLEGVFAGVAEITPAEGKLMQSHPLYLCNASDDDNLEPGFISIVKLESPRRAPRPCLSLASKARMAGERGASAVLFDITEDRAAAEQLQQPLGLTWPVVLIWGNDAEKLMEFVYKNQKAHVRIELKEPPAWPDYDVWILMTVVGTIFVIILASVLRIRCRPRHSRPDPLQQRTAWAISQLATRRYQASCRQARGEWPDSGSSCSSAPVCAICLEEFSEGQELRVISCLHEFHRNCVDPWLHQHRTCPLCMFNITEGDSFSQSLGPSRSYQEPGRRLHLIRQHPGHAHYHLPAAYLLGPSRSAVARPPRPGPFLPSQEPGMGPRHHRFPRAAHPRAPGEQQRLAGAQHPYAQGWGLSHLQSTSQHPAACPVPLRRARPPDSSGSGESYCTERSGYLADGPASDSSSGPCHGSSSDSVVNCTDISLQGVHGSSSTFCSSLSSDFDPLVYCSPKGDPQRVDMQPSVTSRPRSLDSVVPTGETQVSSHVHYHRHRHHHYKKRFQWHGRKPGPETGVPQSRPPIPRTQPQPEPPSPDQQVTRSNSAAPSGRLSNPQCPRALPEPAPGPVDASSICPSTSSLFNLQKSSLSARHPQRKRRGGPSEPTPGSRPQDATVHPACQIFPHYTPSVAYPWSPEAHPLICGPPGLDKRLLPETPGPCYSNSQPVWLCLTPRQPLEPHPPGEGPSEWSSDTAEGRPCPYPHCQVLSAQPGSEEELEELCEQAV"}, "source": "patent US20050069930A1", "key": {"[1]": {"biological_target": "T1, STRIN, two-hybrid prey from pACT2 (human) (UniProt Q8WVD3)", "T1 sequence (looked up)": "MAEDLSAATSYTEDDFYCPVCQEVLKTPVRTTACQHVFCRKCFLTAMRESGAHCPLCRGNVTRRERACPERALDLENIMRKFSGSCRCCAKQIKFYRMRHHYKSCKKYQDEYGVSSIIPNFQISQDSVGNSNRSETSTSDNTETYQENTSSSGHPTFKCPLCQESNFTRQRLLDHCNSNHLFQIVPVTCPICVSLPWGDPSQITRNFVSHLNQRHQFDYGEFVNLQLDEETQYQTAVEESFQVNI", "test": "yeast two-hybrid (GAL4 system)"}, "[2]": {"biological_target": "T2, AIP1 (atrophin-1 interacting protein 1), C-terminal region, two-hybrid prey from pACT2 (human) (UniProt Q86UL8)", "T2 sequence (looked up)": "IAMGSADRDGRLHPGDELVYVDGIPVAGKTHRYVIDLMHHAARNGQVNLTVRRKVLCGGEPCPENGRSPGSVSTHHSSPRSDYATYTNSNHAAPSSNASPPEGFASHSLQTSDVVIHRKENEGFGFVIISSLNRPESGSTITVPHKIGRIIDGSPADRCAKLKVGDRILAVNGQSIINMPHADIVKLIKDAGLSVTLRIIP", "test": "yeast two-hybrid (GAL4 system)"}}, "note": "No constants are given. Whether binding was seen depends on the method and setting. Some results given as binding are weak or reduced against the parent protein; the word gives no strength."}
{"molecule": "RNF43 (Ring finger protein 43), entire coding sequence, two-hybrid bait from pAS2-1 (from UniProt Q68DV7 24-783)", "values": [{"measurement": "binding", "setting": "[1]", "value": "binds"}]}
{"molecule": "CXADRL1 (coxsackie and adenovirus receptor like 1), cytoplasmic region, two-hybrid bait from pAS2-1 (receptor) RSKNKEEEEEEIPNEIREDDLPPKCSSAKAFHTEISSSDNNTLTSSNAYNSRYWSNNPKVHRNTDSVSHFSDLGQSFSFHSGNANIPSIYANGTHLVPGQHKTLVVTANRGSSPQVMSRSNGSVSREPRPPHTHSYTISHATLERIGAVPVMVPAQSRAGSLV", "values": [{"measurement": "binding", "setting": "[2]", "value": "binds"}]}
